In PMC3546041:
These are yes or no findings as the source states them, for the method shown. In cells and extracts the contact can be indirect. Some entries that bind do so weakly or less than the wild type. Where a sequence is shown, tags or fusion partners need not be part of it. One block for each binder: values may come before it.

Legend:
[1] = target: GFP-fused MBD2 COOH-terminus (amino acids 153-414) (Sf9) (mouse) (UniProt Q9Z2E1); experiment: pull-down; YFP- or GFP-fused MeCP2 or MBD2 constructs immobilised on GBP-sepharose beads; RFP- or Cherry-fused proteins in solution; proteins extracted with 1 M NaCl lysis buffer; PBS plus 125 mM NaCl, 0.05% NP-40; Western blot with anti RFP; only the target purified
[2] = target: T1, GFP-fused MBD2 NH2-terminal domain (amino acids 1-152) (Sf9) (mouse) (UniProt Q9Z2E1); experiment: as above
T1 sequence: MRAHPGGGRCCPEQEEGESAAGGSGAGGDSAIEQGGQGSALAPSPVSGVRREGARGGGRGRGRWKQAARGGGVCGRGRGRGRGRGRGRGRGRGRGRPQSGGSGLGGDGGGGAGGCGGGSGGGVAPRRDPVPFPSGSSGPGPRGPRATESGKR

[3] = target: T2, GFP-fused MBD2 NTD (HEK 293) (mouse) (UniProt Q9Z2E1); experiment: co-IP; HEK293-EBNA cells co-expressing GFP- and RFP-tagged domains; lysis, GBP-bound beads and washes in buffer with 200 mM NaCl; Western blot with anti RFP
T2 sequence: T1 sequence

[4] = target: T2, GFP-fused MBD2 NTD (HEK 293) (mouse); experiment: co-IP; HEK293-EBNA cells co-expressing GFP- and RFP-tagged domains; lysis and GBP-bound beads in 200 mM NaCl; complexes washed with buffer containing 300 mM NaCl; Western blot with anti RFP

binding [1]: binds
binding [2]: binds
B1: RFP-fused MBD2 NH2-terminal domain (amino acids 1-152) (Sf9) (domain or fragment, UniProt Q9Z2E1 1-152)
chain: T1 sequence

binding [3]: binds
binding [4]: binds
B2: RFP-fused MBD2 NTD (HEK 293) (domain or fragment, UniProt Q9Z2E1 1-152)
chain: T1 sequence
